Reference: US20110281950A1, “COMPOSITIONS AND METHODS FOR REDUCING PROLIFERATION AND VIABILITY OF LYMPHOBLASTOID CELLS” (priority 2010, published 2011)
For at least one compound, name, drawing or mass did not settle the structure.

Columns and labels:
purified CD56+ NK cells = test: Cell surface protein expression on NK cells, flow cytometry (Example 8); format: cell-based; settings: 24 hours, 1 mM, 2 mM
Description: The mechanism by which HDAC inhibition affects NK cell-driven ADCC was investigated in vitro. […] Viable cells were then collected and stained with monoclonal antibodies specific for cell surface proteins with known stimulatory (NKG2D, FcγRIII) or inhibitory (KIR) activity. Protein expression was then quantified via flow cytometry.

Purified NK cells = test: NK cell 51Cr release cytotoxicity assay, continuous treatment or washout (Example 7); format: cell-based; settings: SAHA 100, 500, 1000 nM; valproate 1, 2 mM
Description: Purified NK cells in DMSO were used as a control. The cells were subsequently analyzed in an IFNγ ELISPOT assay or a ^51Cr release cytotoxicity assay.

In the case of CCCC(CCC)C(=O)O [valproate, reference compound], the “change in cell surface protein expression” value (purified CD56+ NK cells) is reported as “Little change” and the ADCC inhibition (Purified NK cells) is reported as “no significant ADCC inhibition”.
